# From article PMC7042371
# Assays:
# [1] = target: GFP-FCHO1 fusion protein, wild-type (FCH domain only 1) (human); assay: co-IP; GFP-tagged FCHO1 (wt or mutant) pulled down with GFP-Trap magnetic beads from whole-cell lysates of HEK293T cells overexpressing it; lysis and two washes in RIPA buffer; blots for EPS15 and EPS15R
# [2] = target: C’-flag FCHO1 fusion protein (human); assay: co-IP; N’ or C’ Flag-tagged FCHO1 pulled down with anti-Flag M2 Affinity Gel from lysates of stably transduced Jurkat cells; cells starved 1 h and stimulated with α-CD3 (OKT3) cross-linked by goat α-mouse antibody for 2 to 20 min at 37 °C; RIPA buffer; blots for EPS15 and CD3 chains
# [3] = target: N’-flag FCHO1 fusion protein (human); assay: as above
binding [1],binding [2],binding [3],Binder
binds,,,"epidermal growth factor receptor pathway substrate 15 (EPS15), in HEK293T lysate (protein, UniProt P42566 1-896) MAAAAQLSLTQLSSGNPVYEKYYRQVDTGNTGRVLASDAAAFLKKSGLPDLILGKIWDLADTDGKGILNKQEFFVALRLVACAQNGLEVSLSSLNLAVPPPRFHDTSSPLLISGTSAAELPWAVKPEDKAKYDAIFDSLSPVNGFLSGDKVKPVLLNSKLPVDILGRVWELSDIDHDGMLDRDEFAVAMFLVYCALEKEPVPMSLPPALVPPSKRKTWVVSPAEKAKYDEIFLKTDKDMDGFVSGLEVREIFLKTGLPSTLLAHIWSLCDTKDCGKLSKDQFALAFHLISQKLIKGIDPPHVLTPEMIPPSDRASLQKNIIGSSPVADFSAIKELDTLNNEIVDLQREKNNVEQDLKEKEDTIKQRTSEVQDLQDEVQRENTNLQKLQAQKQQVQELLDELDEQKAQLEEQLKEVRKKCAEEAQLISSLKAELTSQESQISTYEEELAKAREELSRLQQETAELEESVESGKAQLEPLQQHLQDSQQEISSMQMKLMEMKDLENHNSQLNWCSSPHSILVNGATDYCSLSTSSSETANLNEHVEGQSNLESEPIHQESPARSSPELLPSGVTDENEVTTAVTEKVCSELDNNRHSKEEDPFNVDSSSLTGPVADTNLDFFQSDPFVGSDPFKDDPFGKIDPFGGDPFKGSDPFASDCFFRQSTDPFATSSTDPFSAANNSSITSVETLKHNDPFAPGGTVVAASDSATDPFASVFGNESFGGGFADFSTLSKVNNEDPFRSATSSSVSNVVITKNVFEETSVKSEDEPPALPPKIGTPTRPCPLPPGKRSINKLDSPDPFKLNDPFQPFPGNDSPKEKDPEIFCDPFTSATTTTNKEADPSNFANFSAYPSEEDMIEWAKRESEREEEQRLARLNQQEQEDLELAIALSKSEISEA"
,binds,binds,"EPS15, in Jurkat lysate (protein, UniProt P42566 1-896) MAAAAQLSLTQLSSGNPVYEKYYRQVDTGNTGRVLASDAAAFLKKSGLPDLILGKIWDLADTDGKGILNKQEFFVALRLVACAQNGLEVSLSSLNLAVPPPRFHDTSSPLLISGTSAAELPWAVKPEDKAKYDAIFDSLSPVNGFLSGDKVKPVLLNSKLPVDILGRVWELSDIDHDGMLDRDEFAVAMFLVYCALEKEPVPMSLPPALVPPSKRKTWVVSPAEKAKYDEIFLKTDKDMDGFVSGLEVREIFLKTGLPSTLLAHIWSLCDTKDCGKLSKDQFALAFHLISQKLIKGIDPPHVLTPEMIPPSDRASLQKNIIGSSPVADFSAIKELDTLNNEIVDLQREKNNVEQDLKEKEDTIKQRTSEVQDLQDEVQRENTNLQKLQAQKQQVQELLDELDEQKAQLEEQLKEVRKKCAEEAQLISSLKAELTSQESQISTYEEELAKAREELSRLQQETAELEESVESGKAQLEPLQQHLQDSQQEISSMQMKLMEMKDLENHNSQLNWCSSPHSILVNGATDYCSLSTSSSETANLNEHVEGQSNLESEPIHQESPARSSPELLPSGVTDENEVTTAVTEKVCSELDNNRHSKEEDPFNVDSSSLTGPVADTNLDFFQSDPFVGSDPFKDDPFGKIDPFGGDPFKGSDPFASDCFFRQSTDPFATSSTDPFSAANNSSITSVETLKHNDPFAPGGTVVAASDSATDPFASVFGNESFGGGFADFSTLSKVNNEDPFRSATSSSVSNVVITKNVFEETSVKSEDEPPALPPKIGTPTRPCPLPPGKRSINKLDSPDPFKLNDPFQPFPGNDSPKEKDPEIFCDPFTSATTTTNKEADPSNFANFSAYPSEEDMIEWAKRESEREEEQRLARLNQQEQEDLELAIALSKSEISEA"

# These are yes or no findings as the source states them, for the method shown. In cells and extracts the contact can be indirect. Binding calls can cover weak binding; strength is not graded here.
